From the supplement of paper PMC10338343
± gives the standard deviation. The entries are a selection whose mix differs from that of the whole data set. The uncertainty is large for many entries. The list shows a part of the results.

Each sequence was assayed on MILI (PIWIL2) piRISC loaded with L1MC piRNA (26 nt) (assay: pre-steady-state target cleavage rate (min^-1); higher = faster piRNA-guided slicing of the target). Settings: guide: L1MC piRNA 5'p-UAACUAAAUACUAUGCAAGCUGUAGG; auxiliary factor: 500 nM mouse GTSF1.
How it was run: (§1)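 Active affinity-purified piRISC (1 nM) loaded with one synthetic guide was mixed with a transcribed, DNA-blocked target RNA library (0.1 nM), with or without 500 nM GTSF1 partner protein, in HEPES–potassium acetate buffer at 33 °C for 0–8 or 0–960 min. Uncleaved targets were sequenced, normalised to depth and to weakly complementary targets, and pooled across three trials, with k3 capped at 0.0001 min^-1. The pre-steady-state cleavage rate was determined with a burst-and-steady-state fit.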

Sequence | pre-steady-state target cleavage rate
UCCUGGAUCAGCUUGUAUAGUAUUUAGUUA | 0.301 ± 0.015
UCCUGGUGCAGCUUGCAUAGUAUUUAGUUA | 0.287 ± 0.017
UCCUGCUACCGCUUGCAUAGUAUUUAGUUA | 0.368 ± 0.035
UCCUGCUACAGCAUGCAUAGUAUAUAGUUA | 0.284 ± 0.03
UCCUGGAUGUCGAACGUUAGUAUUUAGUUA | < 0.0001
UCCUCCUACAGCUGUGCAUAGUAUUUAGUUA | 0.321 ± 0.017

Same assay, conditions: guide: L1MC piRNA 5'p-UAACUAAAUACUAUGCAAGCUGUAGG; auxiliary factor: none (no GTSF1)

Sequence | pre-steady-state target cleavage rate
UCCUCCUACACCUUGCAUAGUAUUUAGAAA | 0.00191 ± 0.0037
UCCUGGAUCAGCUUGCAUACUAUUUACUUA | 0.00103 ± 0.006
UCCUGGAUGUCGUUGCAUAGUAUAAUCAAA [g8:g18:cont:t1A] | 0.000198 ± 0.031
UCCUGGAUCAGCUUGCAUAGAAUUUACUUA | 0.00147 ± 0.0045
UCCUGCUACAGCUUGCAUAGUAUUUUGUAA | 0.00176 ± 0.004
UCCUGGAACACCUUGCAUAGUAUUUUGUUA | 0.00167 ± 0.0055
UCCUGGAUGUGCUUGCAUAGUUAAAUCAAA [g10:g20:cont:t1A] | 0.000245 ± 0.025
UCCUGGAACACCUUGCAUAGAAUUUAGUUA | 0.00189 ± 0.0036
UCCUCCUACAGCUUGCAUAGUAUAAAGUAA | 0.00135 ± 0.005
UCCUGCUACAGCUUGCAUAGUAUUUACAAA | 0.00212 ± 0.0033
UCCUGGAUGUCGAUGCAUACUAUAUAGUUA | 0.000151 ± 0.043
UCCUGGAUCAGCUUGGAUAGUAUUUACUUA | 0.000327 ± 0.019
UCCUGGAUGUCGUUGCAUACUAUAUAGUUA | 0.000571 ± 0.011
UCCUGGAUGUGCUUGCUUAGUAUUUUGUUA | 0.00333 ± 0.0036
UCCUGCUACAGCUUCCAUAGUAUUUACUUA | 0.00045 ± 0.011
UCCUGGAUGUCGAACGUAUCUAUUCAGUUA | 0.0001 ± 0.027
UCCUGGAUGUCCUUGCAUAGUAUUUAGUCA | 0.0025 ± 0.0034

Sequence | pre-steady-state target cleavage rate
UCCUGGAUGAGCUUGCAUACUAUAUAGUUA | 0.000903 ± 0.0089
UCCUGCUACAGCUUGCAUAGAAUUUAGAAA | 0.000878 ± 0.0063
UCCUCCUACAGCUUGCAUAGUUAUUAGUAA | 0.00147 ± 0.0035
UCCUCGAUCAGCUUGCAUAGUAUUUACAAA | 0.00131 ± 0.0036
UCCUGGAUGAGCUUGCAUAGUAUUUAGAAA | 0.00208 ± 0.0032
UCCUGGAUCUGCUUGCAUAGUAUUUAGAAA | 0.0016 ± 0.0044
UCCUGGAUGUCGAUGCAUACUAUUUACUUA | 0.000158 ± 0.029
UCCUGGAACAGCUUGCAUAGAAUAUAGUUA | 0.00135 ± 0.0043
UCCUCCUACAGCUAGCAUAGUAUUUAGAUA | 0.00203 ± 0.0031
UCCUGGAUGUCCUUGCAUAGCAUUUAGUUA | 0.00178 ± 0.0035
UCCUGGAUGAGCUUGCAUAGUAUUUUCAAA | 0.00109 ± 0.0074
UCCUCCUACAGCUUGGAUAGUAUUUAGAAA | 0.00116 ± 0.0051
UCCUGGAACAGCUUGCAUAGAAUUUACUUA | 0.000839 ± 0.0072
UCCUGGAUCAGCUUGCAUAGUAUUUAAUUA | 0.00199 ± 0.0035
UCCUGGAUGUCGAACGUAAGUAUUUAGAUA | 0.000155 ± 0.024
UCCUGGAUGUGCUUGCAUACUAUUUAGUAA | 0.000905 ± 0.0059
UCCUGGAACAGCUUGCAUAGUAUAAAGUUA | 0.00233 ± 0.0033

What follows are sequences tested on EfPiwi piRISC loaded with L1MC piRNA (26 nt) (assay: pre-steady-state target cleavage rate (min^-1); guide: L1MC piRNA 5'p-UAACUAAAUACUAUGCAAGCUGUAGG; MIWI and MILI are mouse PIWI proteins and EfPiwi is from a freshwater sponge; tags in brackets are library labels; higher = faster piRNA-guided slicing of the target). Settings: auxiliary factor: 500 nM Ephydatia muelleri Gtsf1.
How it was run: as §1

Sequence | pre-steady-state target cleavage rate
UCCUCCUACACCUUGCAUAGUAUUUAGAAA | 0.00377 ± 0.0021
UCCUGGAUCAGCUUGCAUACUAUUUACUUA | 0.00362 ± 0.0032
UCCUGGAUGUCGUUGCAUAGUAUAAUCAAA [g8:g18:cont:t1A] | 0.000295 ± 0.0094
UCCUGGAUCAGCUUGUAUAGUAUUUAGUUA | 0.104 ± 0.021
UCCUGGAUCAGCUUGCAUAGAAUUUACUUA | 0.000409 ± 0.013
UCCUGGUGCAGCUUGCAUAGUAUUUAGUUA | 0.0864 ± 0.018
UCCUGCUACAGCUUGCAUAGUAUUUUGUAA | 0.00356 ± 0.0022
UCCUGGAACACCUUGCAUAGUAUUUUGUUA | 0.00343 ± 0.0029
UCCUGGAUGUGCUUGCAUAGUUAAAUCAAA [g10:g20:cont:t1A] | 0.000409 ± 0.011
UCCUGGAACACCUUGCAUAGAAUUUAGUUA | 0.000777 ± 0.0062
UCCUGGAUGUCGAUGCAUACUAUAUAGUUA | 0.000432 ± 0.013
UCCUGCUACCGCUUGCAUAGUAUUUAGUUA | 0.0156 ± 0.005
UCCUGGAUCAGCUUGGAUAGUAUUUACUUA | 0.000346 ± 0.0089
UCCUGGAUGUGCUUGCUUAGUAUUUUGUUA | 0.00057 ± 0.008
UCCUGCUACAGCUUCCAUAGUAUUUACUUA | 0.00131 ± 0.0038
UCCUGGAUGUCCUUGCAUAGUAUUUAGUCA | 0.00415 ± 0.004
UCCUGGAUGAGCUUGCAUACUAUAUAGUUA | 0.000844 ± 0.0061
UCCUGCUACAGCAUGCAUAGUAUAUAGUUA | 0.00599 ± 0.0029

Sequence | pre-steady-state target cleavage rate
UCCUCCUACAGCUUGCAUAGUUAUUAGUAA | 0.00524 ± 0.0028
UCCUCGAUCAGCUUGCAUAGUAUUUACAAA | 0.00554 ± 0.003
UCCUGGAUGAGCUUGCAUAGUAUUUAGAAA | 0.00648 ± 0.0025
UCCUGGAUCUGCUUGCAUAGUAUUUAGAAA | 0.00228 ± 0.0024
UCCUGGAUGUCGAUGCAUACUAUUUACUUA | 0.000201 ± 0.014
UCCUGGAACAGCUUGCAUAGAAUAUAGUUA | 0.000589 ± 0.0092
UCCUCCUACAGCUAGCAUAGUAUUUAGAUA | 0.00495 ± 0.0024
UCCUGGAUGUCGAACGUUAGUAUUUAGUUA | 0.000112 ± 0.025
UCCUGGAUGUCCUUGCAUAGCAUUUAGUUA | 0.000907 ± 0.0029
UCCUGGAUGAGCUUGCAUAGUAUUUUCAAA | 0.00209 ± 0.0024
UCCUCCUACAGCUUGGAUAGUAUUUAGAAA | 0.00325 ± 0.0015
UCCUGGAACAGCUUGCAUAGAAUUUACUUA | 0.00113 ± 0.0042
UCCUGGAUCAGCUUGCAUAGUAUUUAAUUA | 0.00916 ± 0.0034
UCCUCCUACAGCUGUGCAUAGUAUUUAGUUA | 0.0425 ± 0.015
UCCUGGAUGUCGAACGUAAGUAUUUAGAUA | 0.000136 ± 0.031
UCCUGGAUGUGCUUGCAUACUAUUUAGUAA | 0.00108 ± 0.0066
UCCUGGAACAGCUUGCAUAGUAUAAAGUUA | 0.00389 ± 0.0023
